Data reported in patent US8841304B2, “Pyrrolopyridines as kinase inhibitors” (Array Biopharma, Inc., priority 2008, dated 2014).
pIC50: −log10 of the molar value. Structures can show the parent of a compound that is named as a salt. Some entries share one result that the patent states for a list of compounds.

target: T1, human CHK1 kinase domain, amino acids 1 to 273 (Homo sapiens, UniProt O14757); test: CHK1 Enzymatic Assay; format: biochemical; conditions: 0.5 nM CHK1 enzyme, 2 μM S/T 11 peptide substrate, room temperature, four parameter fit
T1 construct: human CHK1 kinase domain, amino acids 1 to 273; His10 (C); made in house
T1 sequence (O14757 1-273): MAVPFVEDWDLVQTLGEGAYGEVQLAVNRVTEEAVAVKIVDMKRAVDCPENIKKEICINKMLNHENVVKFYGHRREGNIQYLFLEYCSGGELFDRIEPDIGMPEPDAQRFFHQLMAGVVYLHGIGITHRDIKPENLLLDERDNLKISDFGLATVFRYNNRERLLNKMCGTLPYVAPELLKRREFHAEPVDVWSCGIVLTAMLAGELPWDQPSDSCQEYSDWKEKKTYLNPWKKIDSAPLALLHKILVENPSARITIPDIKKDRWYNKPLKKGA

SMILES | pIC50
N[C@H](Cc1ccc(Cl)cc1)C(=O)N1CCN(c2c(Br)cnc3[nH]ccc23)CC1 [Example 1, (R)-2-amino-1-(4-(5-bromo-1H-pyrrolo[2,3-b]pyridin-4-yl)piperazin-1-yl)-3-(4-chlorophenyl)propan-1-one] | > 4.98
COC(=O)c1cnc2[nH]ccc2c1N1CCN(C(=O)[C@H](N)Cc2ccc(Cl)cc2)CC1 [Example 2, (R)-methyl 4-(4-(2-amino-3-(4-chlorophenyl)propanoyl)piperazin-1-yl)-1H-pyrrolo[2,3-b]pyridine-5-carboxylate] | > 4.98
N#Cc1cnc2[nH]ccc2c1N1CCN(C(=O)[C@H](N)Cc2ccc(Cl)cc2)CC1 [Example 3, (R)-4-(4-(2-amino-3-(4-chlorophenyl)propanoyl)piperazin-1-yl)-1H-pyrrolo[2,3-b]pyridine-5-carbonitrile] | > 4.98
CC(C)NC[C@@H](C(=O)N1CCN(c2c(Br)cnc3[nH]ccc23)CC1)c1ccc(Cl)cc1 [Example 4, (S)-1-(4-(5-bromo-1H-pyrrolo[2,3-b]pyridin-4-yl)piperazin-1-yl)-2-(4-chlorophenyl)-3-(isopropylamino)propan-1-one] | > 4.98
N[C@@H](C(=O)N1CCN(c2c(Br)cnc3[nH]ccc23)CC1)C1CCCCC1 [Example 5, (R)-2-amino-1-(4-(5-bromo-1H-pyrrolo[2,3-b]pyridin-4-yl)piperazin-1-yl)-2-cyclohexylethanone] | > 4.98
N[C@H](Cc1ccc(Cl)cc1)C(=O)N1CCN(c2c(-c3cccc(F)c3)cnc3[nH]ccc23)CC1 [Example 6, (R)-2-amino-3-(4-chlorophenyl)-1-(4-(5-(3-fluorophenyl)-1H-pyrrolo[2,3-b]pyridin-4-yl)piperazin-1-yl)propan-1-one] | > 4.98
CC(C)NC[C@@H](C(=O)N1CCN(c2c(-c3cccc(F)c3)cnc3[nH]ccc23)CC1)c1ccc(Cl)cc1 [Example 7, (S)-2-(4-chlorophenyl)-1-(4-(5-(3-fluorophenyl)-1H-pyrrolo[2,3-b]pyridin-4-yl)piperazin-1-yl)-3-(isopropylamino)propan-1-one] | > 4.98
COc1cccc(-c2cnc3[nH]ccc3c2N2CCN(C(=O)[C@H](N)Cc3ccc(Cl)cc3)CC2)c1 [Example 8, (R)-2-amino-3-(4-chlorophenyl)-1-(4-(5-(3-methoxyphenyl)-1H-pyrrolo[2,3-b]pyridin-4-yl)piperazin-1-yl)propan-1-one] | > 4.98
COc1cccc(-c2cnc3[nH]ccc3c2N2CCN(C(=O)[C@H](CNC(C)C)c3ccc(Cl)cc3)CC2)c1 [Example 9, (S)-2-(4-chlorophenyl)-3-(isopropylamino)-1-(4-(5-(3-methoxyphenyl)-1H-pyrrolo[2,3-b]pyridin-4-yl)piperazin-1-yl)propan-1-one] | > 4.98
N[C@H](Cc1ccc(Cl)cc1)C(=O)N1CCN(c2c(-c3ccccc3)cnc3[nH]ccc23)CC1 [Example 10, (R)-2-amino-3-(4-chlorophenyl)-1-(4-(5-phenyl-1H-pyrrolo[2,3-b]pyridin-4-yl)piperazin-1-yl)propan-1-one] | > 4.98
COc1ccc(-c2cnc3[nH]ccc3c2N2CCN(C(=O)[C@H](CNC(C)C)c3ccc(Cl)cc3)CC2)cc1OC [Example 11, (S)-2-(4-chlorophenyl)-1-(4-(5-(3,4-dimethoxyphenyl)-1H-pyrrolo[2,3-b]pyridin-4-yl)piperazin-1-yl)-3-(isopropylamino)propan-1-one] | > 4.98
CC(C)(N)C[C@@H](C(=O)N1CCN(c2c(-c3cccc(F)c3)cnc3[nH]ccc23)CC1)c1ccc(Cl)cc1 [Example 12, (R)-4-amino-2-(4-chlorophenyl)-1-(4-(5-(3-fluorophenyl)-1H-pyrrolo[2,3-b]pyridin-4-yl)piperazin-1-yl)-4-methylpentan-1-one] | > 4.98
CC(C)NC[C@@H](C(=O)N1CCN(c2c(-c3ccccc3)cnc3[nH]ccc23)CC1)c1ccc(Cl)cc1 [Example 13, (S)-2-(4-chlorophenyl)-3-(isopropylamino)-1-(4-(5-phenyl-1H-pyrrolo[2,3-b]pyridin-4-yl)piperazin-1-yl)propan-1-one] | > 4.98
CC(C)NC[C@@H](C(=O)N1CCN(c2c(-c3cnn(C)c3)cnc3[nH]ccc23)CC1)c1ccc(Cl)cc1 [Example 14, (S)-2-(4-chlorophenyl)-3-(isopropylamino)-1-(4-(5-(1-methyl-1H-pyrazol-4-yl)-1H-pyrrolo[2,3-b]pyridin-4-yl)piperazin-1-yl)propan-1-one] | > 4.98
Cc1c[nH]c2ncc(-c3ccccc3)c(N3CCN(C(=O)[C@H](CNC(C)C)c4ccc(Cl)cc4)CC3)c12 [Example 15, (S)-2-(4-chlorophenyl)-3-(isopropylamino)-4-(4-(3-methyl-5-phenyl-1H-pyrrolo[2,3-b]pyridin-4-yl)piperazin-1-yl)propan-1-one] | > 4.98
Cc1c[nH]c2ncc(-c3ccccc3)c(N3CCN(C(=O)[C@H](CC(C)(C)N)c4ccc(Cl)cc4)CC3)c12 [Example 16, (R)-4-amino-2-(4-chlorophenyl)-4-methyl-1-(4-(3-methyl-5-phenyl-1H-pyrrolo[2,3-b]pyridin-4-yl)piperazin-1-yl)pentan-1-one] | > 4.98
Cc1c[nH]c2ncc(-c3ccccc3)c(N3CCN(C(=O)C(CCN)Cc4ccc(Cl)cc4)CC3)c12 (centres unmarked) [Example 17, 4-amino-2-(4-chlorobenzyl)-4-(4-(3-methyl-5-phenyl-1H-pyrrolo[2,3-b]pyridin-4-yl)piperazin-1-yl)butan-1-one] | > 4.98
CC(C)NC[C@@H](C(=O)N1CCN(c2c(-c3nnc(C(C)C)o3)cnc3[nH]ccc23)CC1)c1ccc(Cl)cc1 [Example 18, (S)-2-(4-chlorophenyl)-1-(4-(5-(5-isopropyl-1,3,4-oxadiazol-2-yl)-1H-pyrrolo[2,3-b]pyridin-4-yl)piperazin-1-yl)-3-(isopropylamino)propan-1-one] | > 4.98
CC1(C)CC[C@@H]([C@@H](C(=O)N2CCN(c3c(-c4ccccc4)cnc4[nH]ccc34)CC2)c2ccc(Cl)cc2)N1 [Example 19, (S)-2-(4-chlorophenyl)-2-((S)-5,5-dimethylpyrrolidin-2-yl)-1-(4-(5-phenyl-1H-pyrrolo[2,3-b]pyridin-4-yl)piperazin-1-yl)ethanone] | > 4.98
O=C([C@@H](c1ccc(Cl)cc1)[C@@H]1CCCN1)N1CCN(c2c(-c3ccccc3)cnc3[nH]ccc23)CC1 [Example 20, (S)-2-(4-chlorophenyl)-1-(4-(5-phenyl-1H-pyrrolo[2,3-b]pyridin-4-yl)piperazin-1-yl)-2-((S)-pyrrolidin-2-yl)ethanone] | > 4.98
NCCC(=O)N1CCN(c2c(-c3ccccc3)cnc3[nH]ccc23)CC1 [Example 21, 3-amino-1-(4-(5-phenyl-1H-pyrrolo[2,3-b]pyridin-4-yl)piperazin-1-yl)propan-1-one] | > 4.98
CN1CCC[C@H]1[C@@H](C(=O)N1CCN(c2c(-c3ccccc3)cnc3[nH]ccc23)CC1)c1ccc(Cl)cc1 [Example 22, (S)-2-(4-chlorophenyl)-2-((S)-1-methylpyrrolidin-2-yl)-1-(4-(5-phenyl-1H-pyrrolo[2,3-b]pyridin-4-yl)piperazin-1-yl)ethanone] | > 4.98
CC(C)N(C)C[C@@H](C(=O)N1CCN(c2c(-c3ccccc3)cnc3[nH]ccc23)CC1)c1ccc(Cl)cc1 [Example 23, (S)-2-(4-chlorophenyl)-3-(isopropyl(methyl)amino)-1-(4-(5-phenyl-1H-pyrrolo[2,3-b]pyridin-4-yl)piperazin-1-yl)propan-1-one] | > 4.98
CC(C)NCCC(=O)N1CCN(c2c(-c3ccccc3)cnc3[nH]ccc23)CC1 [Example 24, 3-(isopropylamino)-1-(4-(5-phenyl-1H-pyrrolo[2,3-b]pyridin-4-yl)piperazin-1-yl)propan-1-one] | > 4.98
CCCC(=O)Nc1c[nH]c2nccc(N3CCN(C(=O)[C@H](CNC(C)C)c4ccc(Cl)cc4)CC3)c12 [Example 25, (S)—N-(4-(4-(2-(4-chlorophenyl)-3-(isopropylamino)propanoyl)piperazin-1-yl)-1H-pyrrolo[2,3-b]pyridin-3-yl)butyramide] | > 4.98
CC(C)NC[C@@H](C(=O)N1CCN(c2c(-c3cccnc3)cnc3[nH]ccc23)CC1)c1ccc(Cl)cc1 [Example 26, (S)-2-(4-chlorophenyl)-3-(isopropylamino)-1-(4-(5-(pyridin-3-yl)-1H-pyrrolo[2,3-b]pyridin-4-yl)piperazin-1-yl)propan-1-one] | > 4.98
COc1ccc(-c2cnc3[nH]ccc3c2N2CCN(C(=O)[C@H](CNC(C)C)c3ccc(Cl)cc3)CC2)cc1 [Example 27, (S)-2-(4-chlorophenyl)-3-(isopropylamino)-1-(4-(5-(4-methoxyphenyl)-1H-pyrrolo[2,3-b]pyridin-4-yl)piperazin-1-yl)propan-1-one dihydrochloride] | > 4.98
CC(C)NC[C@@H](C(=O)N1CCN(c2c(-c3cccc(C(N)=O)c3)cnc3[nH]ccc23)CC1)c1ccc(Cl)cc1 [Example 28, (S)-3-(4-(4-(2-(4-chlorophenyl)-3-(isopropylamino)-propanoyl)-piperazin-1-yl)-1H-pyrrolo[2,3-b]pyridin-5-yl)benzamide dihycrochloride] | > 4.98
CC(C)NC[C@@H](C(=O)N1CCN(c2c(-c3ccc(CO)cc3)cnc3[nH]ccc23)CC1)c1ccc(Cl)cc1 [Example 29, (S)-2-(4-chlorophenyl)-1-(4-(5-(4-(hydroxymethyl)phenyl)-1H-pyrrolo[2,3-b]pyridin-4-yl)piperazin-1-yl)-3-(isopropylamino)-propan-1-one dihydrochloride] | > 4.98
